At least one read-out could not be matched to a standard name with certainty.
Assay: pharmacokinetic studies in rats (oral suspension vs IV)
Type: in vivo, Male Sprague-Dawley rats
Conditions: rat, compared with anhydrate
Protocol: The bioavailability of the three forms was determined by comparison of suspension and intravenous administration in order to quantify the effect. […] Since the Tmax of the hemihydrate was much higher than the other two forms, it seems more compound was able to be absorbed overall even though over a somewhat longer time period, whereas the monohydrate and anhydrate were limited due to the solubility of the monohydrate form (FIG. 3).
Pharmacokinetic studies in rats were performed at Avastus Preclinical Services, Cambridge, Mass. […]
The plasma samples were analyzed via LC-MS/MS using an Agilent 6410 mass spectrometer coupled with an Agilent 1200 HPLC and a CTC PAL chilled autosampler, all controlled by MassHunter software (Agilent). […] Separation was performed on a C18 reverse phase HPLC column (Kinetex PFP, 2.6 μm, 2.1×50 mm) using an acetonitrile-water gradient system and peaks were analyzed by MS using ESI ionization in MRM mode. […] Area under the curve (AUC) for mercaptopurine was also calculated using the custom WinNonlin analysis. Cmax (maximum plasma concentration) and Tmax (time to reach maximum plasma concentration) were determined by visual inspection of the experimental data. The bioavailability (% F) was calculated from the following equation:
[formula] Frel was calculated with respect to the monohydrate form.

SMILES: Sc1ncnc2nc[nH]c12 [Hemihydrate, mercaptopurine hemihydrate]
- bioavailability relative to the anhydrate: twice as bioavailable as the anhydrate
